From patent publication US20260041743A1, “NOVEL COMPOSITIONS FOR DISRUPTING BIOFILMS” (THE TRUSTEES OF INDIANA UNIVERSITY, priority 2019, published 2026)
Entries after “also recorded” stand apart in the source; their conditions may differ. At least one compound was matched to its structure with a doubt left.

Columns and labels:
Assay type in all cases: cell-based, Pseudomonas aeruginosa
PAO1ΔwspF biofilm [1] = system: PAO1ΔwspF biofilm
PAO1 biofilm = system: PAO1 biofilm
PAO1ΔwspF biofilm [2] = assay: Protein-nucleic acid interaction in biofilm (Pearson's coefficient, confocal), PAO1ΔwspF; conditions: PAO1ΔwspF biofilm at 24 h, ATA vs vehicle
PAO1ΔwspF = assay: Bacterial growth curve, PAO1ΔwspF; conditions: ATA vs buffer

**Q.** Which “PAO1ΔwspF biofilm formation (crystal violet)” value (PAO1ΔwspF biofilm [1]) does the source give for O=C(O)C1=CC(=C(c2ccc(O)c(C(=O)O)c2)c2ccc(O)c(C(=O)O)c2)C=CC1=O [ATA, aurine tricarboxylic acid] here?
**A.** The value was “compromised in vitro PAO1ΔwspF biofilm formation; also recorded: blunted biofilm formation by PAO1ΔwspF”.

**Q.** What about the “dismantling of biofilms formed by RSCV” value (PAO1ΔwspF biofilm [1]) of the same compound?
**A.** Its value is “effective in dismantling biofilms formed by RSCV”.

**Q.** What about the “PAO1 biofilm formation (crystal violet)” value (PAO1 biofilm) of the same compound?
**A.** The value was “compromised in vitro PAO1 biofilm formation; also recorded: significantly compromised the biofilm-forming ability of PAO1”.

**Q.** What about the “protein-nucleic acid interaction in biofilm” value (PAO1ΔwspF biofilm [2]) of the same compound?
**A.** Its value is “limited protein-nucleic acid interaction in PAO1ΔwspF biofilm”.

**Q.** What about the “bacterial growth (growth curve)” value (PAO1ΔwspF) of the same compound?
**A.** Its value is “did not affect cell growth; also recorded: did not affect bacterial growth”.
